From publication PMC12717421
No constants are given. Whether binding was seen depends on the method and setting. Binding seen in cells or lysates may run through a third protein. Some results given as binding are weak or reduced against the parent protein; the word gives no strength. For some of these results: Sequences can lack the tags named with a protein. Values belong to the binder of their own block, whether it stands above or below them.

Tests used:
HA-Maf1/WT [1] = biological target: T1, HA-Maf1/WT (UniProt Q9H063); assay: proximity ligation; in situ PLA in formaldehyde-fixed Huh7 and Hep3B cells; anti-HA and anti-GFP antibodies for the transfected proteins, anti-Aurora-A and anti-Maf1 antibodies for the endogenous proteins in Hep3B
T1 sequence: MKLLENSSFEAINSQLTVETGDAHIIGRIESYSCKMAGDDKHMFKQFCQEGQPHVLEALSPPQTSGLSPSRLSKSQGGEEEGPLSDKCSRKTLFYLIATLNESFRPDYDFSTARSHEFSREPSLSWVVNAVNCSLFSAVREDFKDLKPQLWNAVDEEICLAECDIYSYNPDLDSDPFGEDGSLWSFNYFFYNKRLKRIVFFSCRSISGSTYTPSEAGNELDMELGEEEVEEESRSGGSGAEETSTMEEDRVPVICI

HA-Maf1/WT [2] = biological target: T1, HA-Maf1/WT; assay: co-IP; lysates of transiently transfected Huh7 or Hep3B cells in IP lysis buffer (50 mM Tris-HCl pH 8.0, 120 mM NaCl, 5 mM EGTA, 0.05% Triton X-100, 0.055% NP-40); IP with anti-HA or anti-GFP antibodies, IgG as negative control; western blot
[3] = biological target: T2, endogenous Maf1 (human (endogenous in Hep3B)) (UniProt Q9H063); assay: proximity ligation; in situ PLA in formaldehyde-fixed Huh7 and Hep3B cells; anti-HA and anti-GFP antibodies for the transfected proteins, anti-Aurora-A and anti-Maf1 antibodies for the endogenous proteins in Hep3B
T2 sequence: T1 sequence

binding (HA-Maf1/WT [1]): binds | binding (HA-Maf1/WT [2]): binds
B1: GFP-Aurora-A (enzyme, UniProt O14965 1-403)
chain: MDRSKENCISGPVKATAPVGGPKRVLVTQQFPCQNPLPVNSGQAQRVLCPSNSSQRIPLQAQKLVSSHKPVQNQKQKQLQATSVPHPVSRPLNNTQKSKQPLPSAPENNPEEELASKQKNEESKKRQWALEDFEIGRPLGKGKFGNVYLAREKQSKFILALKVLFKAQLEKAGVEHQLRREVEIQSHLRHPNILRLYGYFHDATRVYLILEYAPLGTVYRELQKLSKFDEQRTATYITELANALSYCHSKRVIHRDIKPENLLLGSAGELKIADFGWSVHAPSSRRTTLCGTLDYLPPEMIEGRMHDEKVDLWSLGVLCYEFLVGKPPFEANTYQETYKRISRVEFTFPDFVTEGARDLISRLLKHNPSQRPMLREVLEHPWITANSSKPSNCQNKESASKQS

binding [3]: binds | binding (HA-Maf1/WT [2]): binds
B2: endogenous Aurora-A (enzyme, UniProt O14965 1-403)
chain: B1 chain
